These are yes or no findings as the source states them, for the method shown. For part of these data: Binding seen in cells or lysates may run through a third protein. Some entries that bind do so weakly or less than the wild type. For part of these data: Where a sequence is shown, tags or fusion partners need not be part of it.
Assays:
IRF7 = target: T1, IRF7 (UniProt Q92985); assay: co-IP
T1 sequence: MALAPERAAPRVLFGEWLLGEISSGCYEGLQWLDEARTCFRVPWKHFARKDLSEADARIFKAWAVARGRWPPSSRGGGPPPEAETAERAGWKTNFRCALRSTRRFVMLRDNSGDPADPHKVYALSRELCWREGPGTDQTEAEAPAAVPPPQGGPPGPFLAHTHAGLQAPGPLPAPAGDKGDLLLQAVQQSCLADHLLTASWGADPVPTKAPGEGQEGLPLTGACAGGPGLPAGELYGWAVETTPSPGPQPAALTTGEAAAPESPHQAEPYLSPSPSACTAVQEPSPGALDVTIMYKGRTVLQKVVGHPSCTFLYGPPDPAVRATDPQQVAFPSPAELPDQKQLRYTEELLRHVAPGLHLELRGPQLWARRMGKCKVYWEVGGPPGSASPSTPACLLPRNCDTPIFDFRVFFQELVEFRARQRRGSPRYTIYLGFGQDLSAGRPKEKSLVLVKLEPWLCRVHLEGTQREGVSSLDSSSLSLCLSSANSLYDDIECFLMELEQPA

The chains behind the UniProt entries cited, without tags or fusion partners.
UniProt Q7Z434: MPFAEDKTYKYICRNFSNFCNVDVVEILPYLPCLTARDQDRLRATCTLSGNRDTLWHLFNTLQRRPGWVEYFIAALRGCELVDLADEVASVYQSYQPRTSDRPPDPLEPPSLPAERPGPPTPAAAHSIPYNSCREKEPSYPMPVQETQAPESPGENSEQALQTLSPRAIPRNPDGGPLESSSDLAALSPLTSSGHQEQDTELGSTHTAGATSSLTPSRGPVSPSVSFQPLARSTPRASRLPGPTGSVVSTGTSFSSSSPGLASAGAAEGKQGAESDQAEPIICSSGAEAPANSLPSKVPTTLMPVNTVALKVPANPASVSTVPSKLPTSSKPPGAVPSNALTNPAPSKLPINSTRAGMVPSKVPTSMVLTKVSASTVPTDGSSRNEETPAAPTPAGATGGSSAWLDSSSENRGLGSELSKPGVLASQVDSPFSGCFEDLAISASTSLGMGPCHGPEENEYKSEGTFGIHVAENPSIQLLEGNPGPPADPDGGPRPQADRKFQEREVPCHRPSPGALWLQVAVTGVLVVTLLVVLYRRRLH

MAVS = MAVS (UniProt Q7Z434); assay: co-IP
[1] = target: HA-NSP9 (SARS-CoV-2 non-structural protein 9) (SARS-CoV-2) (UniProt P0DTD1); assay: co-IP
[2] = target: T2, IRF3 in L929 cells (mouse (endogenous in L929)), P70671; assay: native gel or EMSA; conditions: remark: other sources report otherwise
T2 chain: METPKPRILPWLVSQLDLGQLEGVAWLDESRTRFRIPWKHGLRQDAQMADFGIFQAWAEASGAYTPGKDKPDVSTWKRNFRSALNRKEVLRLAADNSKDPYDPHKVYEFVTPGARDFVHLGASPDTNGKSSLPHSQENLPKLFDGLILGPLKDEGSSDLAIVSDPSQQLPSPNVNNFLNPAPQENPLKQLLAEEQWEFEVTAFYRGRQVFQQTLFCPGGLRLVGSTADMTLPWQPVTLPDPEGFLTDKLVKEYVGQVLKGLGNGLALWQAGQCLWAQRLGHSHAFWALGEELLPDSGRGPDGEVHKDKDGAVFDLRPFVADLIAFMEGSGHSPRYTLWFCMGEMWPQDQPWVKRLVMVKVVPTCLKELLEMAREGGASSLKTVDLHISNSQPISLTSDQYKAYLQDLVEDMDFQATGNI

[3] = target: T3, Flag-TBK1 (TANK-binding kinase-1), Q9UHD2; assay: co-IP; conditions: remark: other sources report otherwise
T3 chain: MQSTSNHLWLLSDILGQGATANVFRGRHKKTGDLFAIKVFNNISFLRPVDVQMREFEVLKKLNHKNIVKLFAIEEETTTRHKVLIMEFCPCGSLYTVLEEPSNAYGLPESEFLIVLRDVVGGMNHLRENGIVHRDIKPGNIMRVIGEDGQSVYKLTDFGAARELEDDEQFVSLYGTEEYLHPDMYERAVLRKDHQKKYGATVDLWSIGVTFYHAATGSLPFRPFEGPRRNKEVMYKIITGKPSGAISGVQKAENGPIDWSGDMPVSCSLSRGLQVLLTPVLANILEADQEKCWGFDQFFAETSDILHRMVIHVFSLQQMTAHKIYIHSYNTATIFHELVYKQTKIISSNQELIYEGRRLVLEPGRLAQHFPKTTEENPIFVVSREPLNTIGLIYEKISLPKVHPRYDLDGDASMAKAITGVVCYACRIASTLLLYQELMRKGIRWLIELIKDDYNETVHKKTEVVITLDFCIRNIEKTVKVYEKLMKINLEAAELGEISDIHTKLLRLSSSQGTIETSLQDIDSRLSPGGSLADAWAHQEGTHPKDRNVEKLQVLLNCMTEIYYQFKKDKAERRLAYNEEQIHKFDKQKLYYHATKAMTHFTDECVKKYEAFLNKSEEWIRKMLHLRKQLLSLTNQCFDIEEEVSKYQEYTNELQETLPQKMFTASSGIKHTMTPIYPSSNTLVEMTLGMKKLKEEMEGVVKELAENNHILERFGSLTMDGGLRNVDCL

[4] = target: T4, Flag-TBK1 (TANK-binding kinase-1) (UniProt Q9UHD2); assay: co-IP
T4 sequence: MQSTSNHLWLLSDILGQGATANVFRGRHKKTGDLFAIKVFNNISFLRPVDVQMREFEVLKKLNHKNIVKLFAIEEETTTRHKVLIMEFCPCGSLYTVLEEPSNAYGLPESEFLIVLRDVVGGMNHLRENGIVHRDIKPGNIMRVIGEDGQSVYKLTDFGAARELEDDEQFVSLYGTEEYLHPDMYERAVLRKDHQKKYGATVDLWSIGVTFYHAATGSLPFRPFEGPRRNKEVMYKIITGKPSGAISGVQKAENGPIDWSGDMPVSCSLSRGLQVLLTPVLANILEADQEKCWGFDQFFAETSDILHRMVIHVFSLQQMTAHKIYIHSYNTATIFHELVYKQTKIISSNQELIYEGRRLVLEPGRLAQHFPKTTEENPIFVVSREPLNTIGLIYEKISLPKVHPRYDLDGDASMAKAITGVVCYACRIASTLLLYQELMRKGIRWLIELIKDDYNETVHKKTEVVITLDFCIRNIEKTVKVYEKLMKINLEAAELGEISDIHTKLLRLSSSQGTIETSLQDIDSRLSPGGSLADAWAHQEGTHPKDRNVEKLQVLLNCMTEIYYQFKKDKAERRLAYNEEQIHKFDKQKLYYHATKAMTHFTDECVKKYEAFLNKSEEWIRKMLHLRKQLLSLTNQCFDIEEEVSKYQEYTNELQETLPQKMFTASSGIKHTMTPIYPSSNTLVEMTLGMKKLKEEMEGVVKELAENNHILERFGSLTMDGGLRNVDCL

In the case of “HA-NSP9 (SARS-CoV-2 non-structural protein 9) (from UniProt P0DTD1)”, the binding (IRF7) is reported as “no binding” and the binding (MAVS) is reported as “no binding”.

B1: Midline 1 (MID1), co-expressed with NSP9 (enzyme, UniProt O15344 1-667)
chain: METLESELTCPICLELFEDPLLLPCAHSLCFNCAHRILVSHCATNESVESITAFQCPTCRHVITLSQRGLDGLKRNVTLQNIIDRFQKASVSGPNSPSETRRERAFDANTMTSAEKVLCQFCDQDPAQDAVKTCVTCEVSYCDECLKATHPNKKPFTGHRLIEPIPDSHIRGLMCLEHEDEKVNMYCVTDDQLICALCKLVGRHRDHQVAALSERYDKLKQNLESNLTNLIKRNTELETLLAKLIQTCQHVEVNASRQEAKLTEECDLLIEIIQQRRQIIGTKIKEGKVMRLRKLAQQIANCKQCIERSASLISQAEHSLKENDHARFLQTAKNITERVSMATASSQVLIPEINLNDTFDTFALDFSREKKLLECLDYLTAPNPPTIREELCTASYDTITVHWTSDDEFSVVSYELQYTIFTGQANVVSLCNSADSWMIVPNIKQNHYTVHGLQSGTKYIFMVKAINQAGSRSSEPGKLKTNSQPFKLDPKSAHRKLKVSHDNLTVERDESSSKKSHTPERFTSQGSYGVAGNVFIDSGRHYWEVVISGSTWYAIGLAYKSAPKHEWIGKNSASWALCRCNNNWVVRHNSKEIPIEPAPHLRRVGILLDYDNGSIAFYDALNSIHLYTFDVAFAQPVCPTFTVWNKCLTIITGLPIPDHLDCTEQLP
B1 was tested, and the binding [1] was “binds”.

B2: IRF3 in L929 cells, P70671 1-419 (protein)
chain: METPKPRILPWLVSQLDLGQLEGVAWLDESRTRFRIPWKHGLRQDAQMADFGIFQAWAEASGAYTPGKDKPDVSTWKRNFRSALNRKEVLRLAADNSKDPYDPHKVYEFVTPGARDFVHLGASPDTNGKSSLPHSQENLPKLFDGLILGPLKDEGSSDLAIVSDPSQQLPSPNVNNFLNPAPQENPLKQLLAEEQWEFEVTAFYRGRQVFQQTLFCPGGLRLVGSTADMTLPWQPVTLPDPEGFLTDKLVKEYVGQVLKGLGNGLALWQAGQCLWAQRLGHSHAFWALGEELLPDSGRGPDGEVHKDKDGAVFDLRPFVADLIAFMEGSGHSPRYTLWFCMGEMWPQDQPWVKRLVMVKVVPTCLKELLEMAREGGASSLKTVDLHISNSQPISLTSDQYKAYLQDLVEDMDFQATGNI
In the case of B2, the binding [2] is reported as “binds”.

B3: Flag-TBK1 (TANK-binding kinase-1), Q9UHD2 1-729 (enzyme)
chain: MQSTSNHLWLLSDILGQGATANVFRGRHKKTGDLFAIKVFNNISFLRPVDVQMREFEVLKKLNHKNIVKLFAIEEETTTRHKVLIMEFCPCGSLYTVLEEPSNAYGLPESEFLIVLRDVVGGMNHLRENGIVHRDIKPGNIMRVIGEDGQSVYKLTDFGAARELEDDEQFVSLYGTEEYLHPDMYERAVLRKDHQKKYGATVDLWSIGVTFYHAATGSLPFRPFEGPRRNKEVMYKIITGKPSGAISGVQKAENGPIDWSGDMPVSCSLSRGLQVLLTPVLANILEADQEKCWGFDQFFAETSDILHRMVIHVFSLQQMTAHKIYIHSYNTATIFHELVYKQTKIISSNQELIYEGRRLVLEPGRLAQHFPKTTEENPIFVVSREPLNTIGLIYEKISLPKVHPRYDLDGDASMAKAITGVVCYACRIASTLLLYQELMRKGIRWLIELIKDDYNETVHKKTEVVITLDFCIRNIEKTVKVYEKLMKINLEAAELGEISDIHTKLLRLSSSQGTIETSLQDIDSRLSPGGSLADAWAHQEGTHPKDRNVEKLQVLLNCMTEIYYQFKKDKAERRLAYNEEQIHKFDKQKLYYHATKAMTHFTDECVKKYEAFLNKSEEWIRKMLHLRKQLLSLTNQCFDIEEEVSKYQEYTNELQETLPQKMFTASSGIKHTMTPIYPSSNTLVEMTLGMKKLKEEMEGVVKELAENNHILERFGSLTMDGGLRNVDCL
In the case of B3, the binding [3] is reported as “binds”.

B4: IRF3 (protein, UniProt Q14653 1-427)
chain: MGTPKPRILPWLVSQLDLGQLEGVAWVNKSRTRFRIPWKHGLRQDAQQEDFGIFQAWAEATGAYVPGRDKPDLPTWKRNFRSALNRKEGLRLAEDRSKDPHDPHKIYEFVNSGVGDFSQPDTSPDTNGGGSTSDTQEDILDELLGNMVLAPLPDPGPPSLAVAPEPCPQPLRSPSLDNPTPFPNLGPSENPLKRLLVPGEEWEFEVTAFYRGRQVFQQTISCPEGLRLVGSEVGDRTLPGWPVTLPDPGMSLTDRGVMSYVRHVLSCLGGGLALWRAGQWLWAQRLGHCHTYWAVSEELLPNSGHGPDGEVPKDKEGGVFDLGPFIVDLITFTEGSGRSPRYALWFCVGESWPQDQPWTKRLVMVKVVPTCLRALVEMARVGGASSLENTVDLHISNSHPLSLTSDQYKAYLQDLVEGMDFQGPGES
With B4 the binding [4] was “binds”.

Reference: publication PMC10580797
